The subject of the assay is ATF7IP-PDGFRB-expressing Ba/F3 cells. As to the kind of experiment: Cell proliferation (WST) assay, ATF7IP-PDGFRB Ba/F3 transfectants without conditioned medium. Conditions: Mus musculus, BaF3, 24 h, read-out: calculated IC50 value. As to the method:
(A) ATF7IP-PDGFRB-expressing Ba/F3 cells in the absence of WEHI-3-conditioned medium (CM) and Mock Ba/F3 cells in the presence of CM were each treated with or without either the PI3 kinase inhibitor LY294002 or the MEK inhibitor PD98059 at the indicated concentrations for 24 hours. Subsequently, the number of living cells was estimated for each type of the cells by WST assay in the same way as in FIG. 5B. The ratio of the OD value obtained from the inhibitor-treated cells relative to that obtained from the inhibitor-untreated cells was calculated and expressed as the means±SEM of triplicates. (B) ATF7IP-PDGFRB-expressing Ba/F3 cells were treated with PD98059 in the presence or absence of CM, and examined in the same way as in (A). […]
The data were analyzed by F-test. P values less than 0.05 were considered significant. All experiments were performed at least three times to calculate means and SEM values.

`Cc1ccc(NC(=O)c2ccc(CN3CCN(C)CC3)cc2)cc1Nc1nccc(-c2cccnc2)n1` [imatinib]: the IC50 was 45.6 nM.

Source of the values: patent US20160289663A1, “NOVEL CHIMERIC GENE ATF7IP-PDGFRB OF ACUTE LYMPHOBLASTIC LEUKEMIA” (priority 2013, published 2016).
